At least one compound was matched to its structure with a doubt left.
Target: FKBP12 (Homo sapiens, UniProt P62942)
Experiment: AlphaLISA: inhibition of binding of biotinylated FK506 to FLAG tagged FKBP12
Set-up: made in house
Conditions: read-out: Binding affinity to FKBP12 (by displacement of FK506)
Protocol: This protocol utilizes Perkin Elmers AlphaLISA technology platform to detect FKBP binders by measuring the inhibition of binding of biotinylated FK506 to FLAG tagged FKBP12.
Add 20 uL of 12.5 nM FKBP-FLAG working stock to each well of the 96-well plate. Add 1 uL of test compound (100% DMSO) to each well of the plate using the Janus MTD head and P20 tips (except control wells). Add 1 uL of DMSO to negative control wells and 1 uL of 50 uM FK506 solution to positive control wells. In the dark, add 20 uL of combined Donor/Acceptor beads to each well. Incubate in the dark for 30 minutes at room temperature. In the dark, add 10 uL of 5 nM biotinylated FK506 working stock to each well. Incubate in the dark for 60 minutes at room temperature. Protect plate from light until reading on Biotek Synergy2 Plate Reader; Alphalisa 96-well protocol (680 excitation/615 emission).

The chains behind the UniProt entries cited, without tags or fusion partners.
UniProt P62942, whole entry, species assumed: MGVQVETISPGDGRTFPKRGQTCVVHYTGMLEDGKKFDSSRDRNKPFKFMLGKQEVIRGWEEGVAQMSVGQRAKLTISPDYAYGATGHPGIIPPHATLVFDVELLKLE

CC[C@H](Cc1cccc(O)c1)[C@@H]1/C=C/C=C/CC[C@@H](C)[C@H](O)[C@@H](C)[C@@H]2CC[C@@H](C)[C@@](O)(O2)C(=O)C(=O)N2CCCC[C@H]2C(=O)O1 [F21]
IC50: 1.1 nM

CC[C@H](Cc1ccccc1)[C@@H]1/C=C/C=C/CC[C@@H](C)C(=O)[C@@H](C)[C@@H]2CC[C@@H](C)[C@@](O)(O2)C(=O)C(=O)N2CCCC[C@H]2C(=O)O1 [F22]
IC50: 785 nM
